# According to publication doi:10.1101/2021.11.15.468682:
# Experiments:
# [1] = molecular target: T1, Plk4 Dimer Mutant 2 (DM2; V590D/I592T) (Plk4-DM2-myc and Plk4-DM2-GFP) (D. melanogaster) (UniProt O97143); assay: co-IP
# T1 sequence: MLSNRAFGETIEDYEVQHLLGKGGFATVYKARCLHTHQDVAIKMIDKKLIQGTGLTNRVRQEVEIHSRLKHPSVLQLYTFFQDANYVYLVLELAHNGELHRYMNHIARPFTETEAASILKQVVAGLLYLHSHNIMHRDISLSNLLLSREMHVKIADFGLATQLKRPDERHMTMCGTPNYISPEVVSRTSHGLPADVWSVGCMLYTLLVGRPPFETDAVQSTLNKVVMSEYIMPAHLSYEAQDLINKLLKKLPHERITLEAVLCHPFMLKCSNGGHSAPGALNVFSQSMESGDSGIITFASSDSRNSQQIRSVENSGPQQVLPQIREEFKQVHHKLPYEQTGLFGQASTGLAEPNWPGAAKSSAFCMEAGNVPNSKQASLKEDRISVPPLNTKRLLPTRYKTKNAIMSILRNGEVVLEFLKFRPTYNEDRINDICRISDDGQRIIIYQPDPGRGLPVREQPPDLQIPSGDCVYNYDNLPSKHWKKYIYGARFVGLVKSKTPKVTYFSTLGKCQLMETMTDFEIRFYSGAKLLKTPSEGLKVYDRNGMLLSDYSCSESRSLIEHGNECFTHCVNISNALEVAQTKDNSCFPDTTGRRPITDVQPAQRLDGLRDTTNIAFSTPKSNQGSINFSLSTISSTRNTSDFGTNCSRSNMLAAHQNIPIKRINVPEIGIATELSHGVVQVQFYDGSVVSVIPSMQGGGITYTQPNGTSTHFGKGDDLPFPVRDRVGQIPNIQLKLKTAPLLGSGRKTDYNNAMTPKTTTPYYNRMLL
# [2] = molecular target: T2, Drosophila melanogaster Polo-like kinase 4, wild type (Plk4-WT-GFP and Plk4-WT-myc) (D. melanogaster) (UniProt O97143); assay: co-IP
# T2 sequence: T1 sequence with D590V, T592I
binding [1],binding [2],Substance
binds,,"Cep135 (centriole protein), endogenous (Drosophila (endogenous in S2 cells))"
,binds,Asl-A mutant lacking the dimerization domain CC3 (Drosophila) (domain or fragment)
binds,binds,"Slimb (F-box protein), endogenous (Drosophila (endogenous in S2 cells))"
,binds,"Asl-A, the N-terminal third of Drosophila Asterless (Asl-A-V5; also GFP-tagged Asl-A) (domain or fragment)"

# Positions count from the first letter of the chain named. These are yes or no findings as the source states them, for the method shown. In cells and extracts the contact can be indirect. Binding can be weak; no strength is given. Where a sequence is shown, tags or fusion partners need not be part of it.
